From US20170096680 come the findings set out here.

For part of these data: Tags and fusion partners may be left off the protein sequences shown.

Holding throughout (experiment): activity in cells
What all share (details): protein in cells, only the site is given

Data set [1] concerns T1, A118 recombinase (Listeria monocytogenes bacteriophage A118).
T1 sequence (limits assumed): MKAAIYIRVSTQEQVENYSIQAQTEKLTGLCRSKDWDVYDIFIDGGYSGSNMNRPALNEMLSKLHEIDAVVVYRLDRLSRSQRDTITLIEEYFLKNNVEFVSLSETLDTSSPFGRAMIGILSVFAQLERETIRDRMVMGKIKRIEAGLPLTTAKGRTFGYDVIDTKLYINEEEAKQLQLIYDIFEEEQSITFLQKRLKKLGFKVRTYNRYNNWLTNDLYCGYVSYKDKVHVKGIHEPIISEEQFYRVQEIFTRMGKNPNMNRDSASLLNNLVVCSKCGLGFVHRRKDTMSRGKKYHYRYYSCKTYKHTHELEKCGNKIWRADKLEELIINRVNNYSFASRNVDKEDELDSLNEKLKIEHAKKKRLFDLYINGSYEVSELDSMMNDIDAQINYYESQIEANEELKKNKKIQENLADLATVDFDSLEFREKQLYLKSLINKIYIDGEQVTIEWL

Data set [2] has as its system BxbI recombinase (Bxb1 integrase).
Data set [3] deals with T2, TP901 recombinase (TP901-1 integrase).
T2 sequence (limits assumed): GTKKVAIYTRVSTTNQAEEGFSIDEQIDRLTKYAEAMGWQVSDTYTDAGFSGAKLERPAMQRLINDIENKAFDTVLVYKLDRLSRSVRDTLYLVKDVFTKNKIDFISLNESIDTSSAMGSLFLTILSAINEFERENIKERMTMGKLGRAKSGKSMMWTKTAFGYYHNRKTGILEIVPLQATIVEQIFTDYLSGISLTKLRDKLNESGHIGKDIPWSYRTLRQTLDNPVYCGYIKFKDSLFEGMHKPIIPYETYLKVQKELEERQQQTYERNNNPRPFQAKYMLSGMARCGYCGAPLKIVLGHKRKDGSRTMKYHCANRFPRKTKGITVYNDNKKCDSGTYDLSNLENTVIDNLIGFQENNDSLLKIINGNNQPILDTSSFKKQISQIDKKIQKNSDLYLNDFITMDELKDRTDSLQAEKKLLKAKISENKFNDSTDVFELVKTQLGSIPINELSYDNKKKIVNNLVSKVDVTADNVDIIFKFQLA

With “TTAGTTCCTCGTTTTCTCTCGTTAAAAGAAGAAGAAACGAGAAACTAAA (double strand) [A118P-AA attP]”, the “activity on this sequence” value in data set [1] (recombines with attB-AA, orthogonal to GG pair, variant of A118P-GG attP) is “active”.

Regarding “CGGCCGGCTTGTCGACGACGGCGCACTCCGTCGTCAGGATCATCCGGGC (double strand) [BxbIB-CA attB]”, the “activity on this sequence” value in data set [2] (recombines with attP-CA, orthogonal to GT pair, variant of BxbIB-GT attB) is on record as “active”.

“CGGCCGGCTTGTCGACGACGGCGGTCTCCGTCGTCAGGATCATCCGGGC (double strand) [BxbIB-GT attB]”: the “activity on this sequence” value in data set [2] (recombines with attP-GT in 3-input 16-state register, 88-100% of cells in expected state) was “active”.

“ATGCCAACACAATTAACATCTCAATCAAGGTAAATGCTTTTTGCTTTTTTTGC (double strand) [TP901B-TC attB]”: the “activity on this sequence” value in data set [3] (recombines with attP-TC, rare recombination between mismatched-dinucleotide TP901 sites seen) is listed as “active”.

“GCGAGTTTTTATTTCGTTTATTAGAATTAAGGTAACTAAAAAACTCCTTT (double strand) [TP901P-AG attP]”: the “activity on this sequence” value in data set [3] (recombines with attB-AG, at least 97% of cells in expected state (5-state RSM), variant of TP901P-TC attP) is given as “active”.

“ATGCCAACACAATTAACATCAGAATCAAGGTAAATGCTTTTTGCTTTTTTTGC (double strand) [TP901B-AG attB]”: the “activity on this sequence” value in data set [3] (recombines with attP-AG, at least 97% of cells in expected state (5-state RSM), variant of TP901B-TC attB) is on record as “active”.

Consider “TTAGTTCCTCGTTTTCTCTCGTTGGAAGAAGAAGAAACGAGAAACTAAA (double strand) [A118P-GG attP]”, for which, in data set [1] (recombines with attB-GG), the “activity on this sequence” value was “active”.

For “GCGAGTTTTTATTTCGTTTATTTCAATTAAGGTAACTAAAAAACTCCTTT (double strand) [TP901P-TC attP]”, the “activity on this sequence” value in data set [3] (recombines with attB-TC, rare recombination between mismatched-dinucleotide TP901 sites seen) is recorded as “active”.

As to “GTCGTGGTTTGTCTGGTCAACCACCGCGGTCTCAGTGGTGTACGGTACAAACCCCGAC (double strand) [BxbIP-GT attP]”, the “activity on this sequence” value in data set [2] (recombines with attB-GT in 3-input 16-state register) is “active”.

Regarding “AACTTTTCGGATCAAGCTATGAAGGACGCAAAGAGGGAACTAAACACTT (double strand) [A118B-GG attB]”, the “activity on this sequence” value in data set [1] (recombines with attP-GG) is “active”.

For the sequence “AACTTTTCGGATCAAGCTATGAAAAACGCAAAGAGGGAACTAAACACTT (double strand) [A118B-AA attB]”, the “activity on this sequence” value in data set [1] (recombines with attP-AA, orthogonal to GG pair, variant of A118B-GG attB) was “active”.

For “GTCGTGGTTTGTCTGGTCAACCACCGCGCACTCAGTGGTGTACGGTACAAACCCCGAC (double strand) [BxbIP-CA attP]”, the “activity on this sequence” value in data set [2] (recombines with attB-CA, orthogonal to GT pair, variant of BxbIP-GT attP) is given as “active”.
